Measured values reported in article doi:10.1101/2020.07.20.213066.
No constants are given. Whether binding was seen depends on the method and setting. For part of these data: Binding seen in cells or lysates may run through a third protein. Some results given as binding are weak or reduced against the parent protein; the word gives no strength. Tags and fused reporters may be left off the sequences shown.

By UniProt entry, the sequences of proteins in these tests, tags left out. Residues count along the entry.
UniProt Q9BYP7, residues 1641-1666: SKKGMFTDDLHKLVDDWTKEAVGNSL
UniProt Q9Y3S1, residues 2153-2178: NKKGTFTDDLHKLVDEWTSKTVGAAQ

T1: purified 3xFLAG-tagged EMC2 (human) (UniProt Q15006)
T1 sequence: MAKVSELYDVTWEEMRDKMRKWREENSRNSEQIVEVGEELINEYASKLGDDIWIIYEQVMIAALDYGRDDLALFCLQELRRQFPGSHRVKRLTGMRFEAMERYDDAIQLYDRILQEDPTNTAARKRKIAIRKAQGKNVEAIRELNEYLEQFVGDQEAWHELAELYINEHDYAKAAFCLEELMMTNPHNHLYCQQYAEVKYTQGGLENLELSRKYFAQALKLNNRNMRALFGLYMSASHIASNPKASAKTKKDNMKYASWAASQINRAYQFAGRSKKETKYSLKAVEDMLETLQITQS

T2: full-length S. cerevisiae EMC5-3xFLAG, in vitro translated (S. cerevisiae) (UniProt P40540)
T2 sequence: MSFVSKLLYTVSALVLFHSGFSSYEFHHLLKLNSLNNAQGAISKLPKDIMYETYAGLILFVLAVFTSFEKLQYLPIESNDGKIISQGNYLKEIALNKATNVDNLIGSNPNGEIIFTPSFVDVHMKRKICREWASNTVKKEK


What was measured:
[1] = molecular target: T1, purified 3xFLAG-tagged EMC2 (human); test: co-IP
[2] = molecular target: T2, full-length S. cerevisiae EMC5-3xFLAG, in vitro translated (S. cerevisiae); test: co-IP

Row | binding [1] | binding [2] | Molecule
1 | binds | – | His14-bdSUMO-tagged WNK3 helix (residues 1641-1666) (from UniProt Q9BYP7 1641-1666) (domain or fragment)
2 | binds | – | His14-bdSUMO-tagged WNK2 helix (residues 2153-2178) (from UniProt Q9Y3S1 2153-2178) (domain or fragment)
3 | – | binds | 3xHA-tagged S. cerevisiae EMC2, in vitro translated (protein, UniProt P47133 1-292) MLKDLVREKLLTIMNTKAYTQFNPEQLLQLENEMKIYMKSGDSALTEGNYFFLMEMLFYVLVYRNQDVDAQVVYNTLRDRLGENSYKMVIMKATLLQINGNDKGAIEYLENLLNDDLEYETDFVTYVSIAKKLIAIKTTSKNLSQESVLKEVVALTDKFPLDAELWWYASEIYFEMGQFEKACYCLEQVLCITPFNYACFGRLSETLYYEALRSKKQTKTELLEKALKNALRSVELSELYLKGWALVNIISRELGRNKQNDLIKLSASKLKEISAKSNNKDKITAELILNKI
